These are yes or no findings as the source states them, for the method shown. A result given as binding can be weak or reduced; the word gives no strength. For some of these results: Where a sequence is shown, tags or fusion partners need not be part of it.

Data on six molecules can be found in PMC9512787.

Experiment [1] addresses 2xFLAG-HAUS6 (X. laevis) (UniProt A0JPI0). The experiment can be described thus: negative stain EM 3D reconstruction; augmin octamer from co-expression of all eight subunits, anti-FLAG elution and SEC (Superose 6 increase); predicted models docked as rigid bodies; both purified.
Experiment [2] deals with T1, 2xFLAG-HAUS3 (X. laevis) (UniProt Q6DCY9).
T1 sequence: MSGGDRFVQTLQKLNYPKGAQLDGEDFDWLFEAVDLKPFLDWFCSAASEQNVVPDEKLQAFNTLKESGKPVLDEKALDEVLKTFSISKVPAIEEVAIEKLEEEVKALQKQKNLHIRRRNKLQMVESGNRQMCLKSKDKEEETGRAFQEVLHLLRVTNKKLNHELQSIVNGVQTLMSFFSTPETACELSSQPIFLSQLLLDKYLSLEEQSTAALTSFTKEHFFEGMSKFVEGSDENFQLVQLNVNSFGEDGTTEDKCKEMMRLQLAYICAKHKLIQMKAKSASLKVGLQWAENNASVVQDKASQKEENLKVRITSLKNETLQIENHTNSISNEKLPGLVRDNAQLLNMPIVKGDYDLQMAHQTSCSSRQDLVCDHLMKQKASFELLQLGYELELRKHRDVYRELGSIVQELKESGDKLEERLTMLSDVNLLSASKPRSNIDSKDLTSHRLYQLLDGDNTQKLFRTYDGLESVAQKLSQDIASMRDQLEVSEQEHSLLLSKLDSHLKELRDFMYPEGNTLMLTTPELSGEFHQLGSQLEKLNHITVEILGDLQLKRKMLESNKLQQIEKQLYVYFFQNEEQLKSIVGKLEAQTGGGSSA
In words: cross-linking; 50 µg AEC-purified TIII tetramer, 0.1 mM BS3, 15 min, RT; mass spectrometry; 190 highest-scoring crosslinks mapped on the model; both purified.

The target of experiment [3] is T1, 2xFLAG-HAUS3 (X. laevis). The experiment can be described thus: cryo-EM structure; purified augmin TIII tetramer, single particle analysis, 7.7 Å global resolution; AlphaFold-Multimer model fitted by MDFF; both purified.

In the case of HAUS2 (from UniProt Q6INL9), the binding entry in experiment [1] is reported as “binds”.
On the same count and under the same terms, the entry for HAUS7 (from UniProt B1H1T5) is “binds”.
As for HAUS5 (X. laevis), the binding result in experiment [2] and in experiment [3] was “binds” in each case.
Consider HAUS4 (from UniProt Q4V7I1), for which the binding entry in experiment [3] is given as “binds”.
The same measure, in the same setting: the entry for HAUS1-EGFP-HIS8 (X. laevis) is “binds”.

B1: HAUS8 (protein, UniProt Q0IHJ3 1-367)
chain: MSEAGVAPIEDGSQNSSGGSSGDAALKKSKGGAKVVKSRYMQIGRSKVSKNSLANTTVCSGGKVPERGSGGTPTRRSLAPHKAKITAAVPLPALDGSIFTKEDLQSTLLDGHRIARPDLDLSVINDRTLQKITPRPVVTSEQKKPKRDTTPVNLVPEDMVEMIESQTLLLTYLTIKMQKNLFRLEEKAERNLLLVNDQKDQLQETIHMMKRDLTLLQREERLRDLIEKQDEVLTPVVTSKDPFKDNYTTFATALDSTRHQLAIKNIHITGNRHRYLEELQKHLAITKSLLEEIMPSHASENAESFDTIKDLENIVLKTDEELARSFRQILDLSFKVNKEISLQSQKAVEETCESALVRQWYFDGSLP
B1: the binding result in experiment [1] was “binds”.
